Consider one molecule from article PMC1855991.

Numbering of substitutions follows the chain as printed. These are yes or no findings as the source states them, for the method shown. Binding seen in cells or lysates may run through a third protein. Some results given as binding are weak or reduced against the parent protein; the word gives no strength. Tags and fused reporters may be left off the sequences shown.

The target in one assay is T1, Lsk1-HA (S. pombe) (UniProt O14098).
T1 sequence: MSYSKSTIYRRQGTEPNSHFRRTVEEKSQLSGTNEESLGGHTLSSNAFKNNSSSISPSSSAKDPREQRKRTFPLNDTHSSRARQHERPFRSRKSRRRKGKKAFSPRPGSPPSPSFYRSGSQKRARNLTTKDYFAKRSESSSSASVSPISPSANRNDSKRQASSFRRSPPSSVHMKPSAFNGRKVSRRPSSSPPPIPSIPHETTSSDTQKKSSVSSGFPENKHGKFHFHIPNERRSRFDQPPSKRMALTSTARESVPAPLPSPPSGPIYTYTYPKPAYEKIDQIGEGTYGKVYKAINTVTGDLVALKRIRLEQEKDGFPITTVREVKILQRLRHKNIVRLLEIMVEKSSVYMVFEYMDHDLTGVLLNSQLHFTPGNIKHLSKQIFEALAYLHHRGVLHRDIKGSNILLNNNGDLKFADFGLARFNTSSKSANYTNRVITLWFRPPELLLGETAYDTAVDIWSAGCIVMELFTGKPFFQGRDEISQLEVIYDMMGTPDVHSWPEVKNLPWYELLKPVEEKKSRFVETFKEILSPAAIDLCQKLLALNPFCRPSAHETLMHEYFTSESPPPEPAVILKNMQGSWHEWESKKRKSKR
Kind of assay: co-IP; S. pombe cells grown to mid-log phase and lysed under native conditions; anti-HA (12CA5) immunoprecipitation, SDS-PAGE, immunoblot with anti-myc (9E10). Background: Immunoblotting shows a protein as a band on a membrane.

The next assay deals with T2, Lsk1-K306R-HA (S. pombe) (UniProt O14098).
T2 sequence: T1 sequence with K306R
Described as above.

B1: Lsc1-myc (protein, UniProt O59748 1-331)
chain: MAENENHVLSIRMSHPYYSEKEISRILSTRDPKENNLRMQAFAWISTLSKTLKFPVRTSGLAMLLYSRFQLFFPVNEIPLLECATACLVVASKIEDTAKKFRDILLAHYLQKHPGSEVDAHSQLIEENKKRILGLERMTLELICFDFRVRHPHNYMVKFAKSLKFSSSTASIAWNVCTDAYKTYTMLKYPAHIVAVASISIACKLQQLPQPIIPRSFFAPPALTEAVIADILDLYMHYQPHTCIGNMYTTEKLLGLCVDFQRAQKNSGRPQKPPQIDPHSSSLADEYRESNKRLQESKESCARFILDCDRKYFNTEFEKRMLEERRNKGTV
B1: the binding entry is given as “binds” with Lsk1-HA (S. pombe) and “no binding” in the assay with Lsk1-K306R-HA (S. pombe).
